Reference: paper PMC10163288
Some of the results follow.

B1: il2ra_site1_2b5i_sap_8_mot_HHH_b1_04517_000000040_0001_39_52_H_._HHH_b2_05314_0001_0000400027_0000001_0_0001_af2pred_dldesign_0_af2pred (protein)
chain: SSSDPKALAETAAAIVEELEEKYNLNLEQSAVLERLAVELVWKGVSPEEIRRRLEALAKELSSSS
B2: il2ra_site1_3nfp_normal_mot_HHH_b1_01683_000000180_0001_19_35_H_._HHH_b2_05362_0001_0000600031_0000001_0 (protein)
chain: SSSSSSEEKEELLRRLFRLAKEAKSEEELKKILEEAEELAEELGDEKLLRDIEIWLKLLESSSSS
B3: il2ra_site2_3nfp_normal_mot_HHH_b1_07095_000000265_0001_1_20_H_._HHH_b2_06641_0001_0000100001_0000001_1 (protein)
chain: SSSSDVEERVQELLEEAERLLEEGNPEEARKLVQEAAHLAYEARNFELFALVNEVLAKIVLSSSS
B4: il2ra_site1_2b5i_sap_14_mot_HHH_eva_0271_af2_000000019_0001_1_17_H_._b0be08dbeb19038e97ce33ab5425b229_0001_af2_0001_0000100006_0000001_0_0001_af2pred_0001_af2pr … (protein)
chain: SSSDELRELDRYLVRVIYELRVRLGLSSEQARELARLAAELAEEGISEEEAEQILRKLAEELSSS
B5: il2ra_site1_2b5i_normal_mot_HHH_b1_06258_af2_000000112_0001_42_56_H_._HHH_b1_05797_0001_0000200011_0000001_0 (protein)
chain: SSSSDEEFEEAAELFLEASRAYKKGNPEEARELLERALEILERGGDPLAEQVEFMLRRLRSSSSS
B6: il2ra_site1_3nfp_sap_18_mot_HHH_b1_05931_000000015_0001_42_57_H_._HHH_b1_04798_af2_0001_0000300009_0000001_0_0001_af2pred_0001_af2pred_1_swapped (protein)
chain: SLEEALEFLEQLAEELNDPALKALVRQLEKLVRNGNEELAKRAVEYFLKRSGSPILEEVLKLLRK
B7: il2ra_site2_3nfp_normal_mot_3824cfb560b92ee870597236e80092b0_0001_000000220_0001_16_33_H_._HHH_b2_01894_0001_0000300040_0000001_1 (protein)
chain: SSSSSSDTEERVEELLEEAEKIEDPEEARRVVAEAALIAAEARNFELFALVIELLAEIASSSSSS
B8: il2ra_site2_3nfp_normal_mot_HHH_b1_05437_000000005_0001_40_57_H_._HHH_b2_02858_0001_0000400023_0000001_0 (protein)
chain: SSSSDEEELRRRVEELLEEAEEIDDPEERRKVLAEATNLAYEGRDFELFALVAEVLFKLGSSSSS
B9: il2ra_site2_3nfp_normal_mot_ems_p1-15H-GBL-16H-GBL-14H_0089_0001_0001_0001_af2_000000072_0001_19_33_H_._HHH_b1_02393_0001_0000100012_0000001_0_af2pred_0001_af2p … (protein)
chain: SSSSSDEEEREEVEELLEEAKHIEDEFELFAVLADALAIAIELNDPELERLVREVIAKLQSSSSS
B10: il2ra_site2_3nfp_sap_28_mot_HHH_b1_06589_000000230_0001_37_50_H_._HHH_b2_02307_af2_0001_0000200010_0000001_0_0001_af2pred_0001_af2pred (protein)
chain: SSSSDAHEEIARLLQRAEELYENGNPEEARELIKEAEELAEENNDEHAEFAVRAELILLKLSSSS
B11: il2ra_site1_1z92_sap_13_mot_HHH_b1_06381_000000058_0001_42_59_H_._HHH_b1_06884_0001_0000100002_0000001_0_0001_af2pred_0001_af2pred (protein)
chain: SSSSSSDEAFEEAAELFEEAAKLRDPEEVRRLLEEALELAEEAGDEVIARDIRQYLERLSSSSSS
B12: il2ra_site1_3nfp_sap_6_mot_119b7766384adbe86006a62bce89dba1_0001_af2_000000092_0001_18_32_H_._7316f35285ac56439be3f38723dbf1df_0001_1_0001_0000200007_0000001_0_ … (protein)
chain: SAIEVFVKRLARKGYPPEEIAERLFEIAEKTGTEEELERELEKLVKKTGDPTLKRILEVLEELVR
B13: il2ra_site1_2b5i_normal_mot_HHH_b2_07170_af2_000000076_0001_1_16_H_._HHH_b2_07371_0001_0000200019_0000001_0_af2pred_dldesign_0_af2pred (protein)
chain: SSSSSSSVRDVIEKAEELYLAGKPEEAIKVLEDAIARYTALGRAAQVRLLEAVLKQLLSSSSSSS
B14: il2ra_site2_2erj_normal_mot_HHH_b2_05866_000000027_0001_43_57_H_._HHH_b1_02287_0002_0000900047_0000001_0 (protein)
chain: SSSSDDEVSELIAEVVEALREGDRELARELLEEAERLAREANNPYLERYVELARRDLELLSSSSS
B15: il2ra_site2_3nfp_normal_mot_HHH_b1_06059_000000180_0001_38_52_H_._HHH_b1_08143_0001_0000200019_0000001_0 (protein)
chain: SSSSDKEEEIERLLEEAEELIERGDPERAQELLARATHLAFELGDPELYALVARVLQLLAHSSSS
B16: il2ra_site2_3nfp_sap_22_mot_HHH_b1_04032_000000208_0001_43_56_H_._HHH_b1_07323_0001_0000500012_0000001_0_0001 (protein)
chain: SSSSDVEELIEEAHRLIEEGDTNEAARALVEATHLATRAGDPELARLLLELYRLILEQYGSSSSS
B17: il2ra_site2_3nfp_normal_mot_HHH_b2_01278_000000069_0001_18_35_H_._HHH_b2_04693_0001_0000500017_0000001_0_af2pred_0001_af2pred (protein)
chain: SSSSDELQQQVAIAEWIAEEEGDDELLRQLEELLERYEREGDPRVREELEELAKEIIKLSTSSSS
B18: il2ra_site2_2erj_normal_mot_HHH_eva_0077_000000062_0001_1_20_H_._HHH_b1_03327_af2_0001_0000700006_0000001_0 (protein)
chain: SSSSDERLRELYELAVKILHALARNDEELLKELIKEAKELAEELDSPSARELVEALEKLLDSSSS
B19: il2ra_site1_1z92_sap_17_mot_07d2d8a42fb0c6931fb03626c2a0eeb8_0001_000000072_0001_36_50_H_._247dac63e089d0360fbd2958dd0f7702_0001_0001_0000200021_0000001_0_0001 (protein)
chain: SSSSSAREYIEEMARALARTIRAKGNPRAREILEWLLRQARILGDEELRELIEKLLEELRSSSSS

These binders were tested against il2ra, P01589 (assay: yeast display titration).

Apparent Kd, inactive:
B1 no binding seen
B2 no binding seen
B3 no binding seen
B4 no binding seen
B5 no binding seen
B6 no binding seen
B7 no binding seen
B8 no binding seen
B9 no binding seen
B10 no binding seen
B11 no binding seen
B12 no binding seen
B13 no binding seen
B14 no binding seen
B15 no binding seen
B16 no binding seen
B17 no binding seen
B18 no binding seen
B19 no binding seen

Looked up one by one from the entries so far, 2 records:
Apparent Kd, inactive:
B10 no binding seen
B19 no binding seen
